{
  "source": "patent US12331121B2",
  "about": "“Efflux pump-cancer antigen multi-specific antibodies and compositions, reagents, kits and methods related thereto” (William Robert Arathoon Living Trust Dated August 29, 2016, priority 2019, dated 2025)",
  "test_system": "NALM6 ADR cells",
  "conditions": "BisP1.1 15 mg/kg or valspodar 20 mg/kg with paclitaxel 5 or 20 mg/kg",
  "excerpt": "Cells: NALM6 (ATCC) and NALM6 ADR (ATCC), B cell precursor lymphoblastic leukemia cell lines used in this study. NALM6 ADR is a multidrug resistant cell line derived from NALM6 cells.\nMice: Sixty-five 5-6-weeks-old female SCID-Beige mice (Charles River) were used in this study.\nInoculation-2×10^6 cells diluted in PBS:Matrigel (1:1) were subcutaneously injected using a 27G insulin syringe into fifty anesthetized 5-6-week-old female SCID-Beige mice under sterile conditions.\nNALM6 ADR subcutaneous tumors: Mice were randomized into nine groups of five mice each—(i) Control isotype IgG1 15 mg/kg, (ii) Control isotype IgG1 15 mg/kg and 5 mg/kg of paclitaxel, (iii) Control isotype IgG1 15 mg/kg and 20 mg/kg of paclitaxel, (iv) BisP1.1 15 mg/kg, (v) BisP1.1 15 mg/kg and 5 mg/kg of paclitaxel, (vi) BisP1.1 15 mg/kg and 20 mg/kg of paclitaxel (vii) Valspodar 20 mg/kg (viii) Valspodar 20 mg/kg and 5 mg/kg of paclitaxel and (ix) Valspodar 20 mg/kg and 5 mg/kg of paclitaxel. […]\nMeasurements: Tumor measurements were done thrice a week using a calibrated Vernier Caliper and tumor volume calculated as per the formula ½*L*S*S where L is the long axis and s is the short axis of the tumor. Body weights were recorded before treatment started and were continuously monitored throughout the study. Animal survival was evaluated from the first day of treatment until death. […]",
  "note": "For at least one compound, name, drawing or mass did not settle the structure.",
  "data": [
    {"compound": "C/C=C/C[C@@H](C)C(=O)[C@H]1C(=O)N[C@@H](C(C)C)C(=O)N(C)CC(=O)N(C)[C@@H](CC(C)C)C(=O)N[C@@H](C(C)C)C(=O)N(C)[C@@H](CC(C)C)C(=O)N[C@@H](C)C(=O)N[C@H](C)C(=O)N(C)[C@@H](CC(C)C)C(=O)N(C)[C@@H](CC(C)C)C(=O)N(C)[C@@H](C(C)C)C(=O)N1C", "note": "[valspodar]", "values": [
      {"measurement": "tumor growth in combination with paclitaxel", "result": "chemosensitized NALM6ADR tumors"}
    ]}
  ]
}
